# For some assays here: Expression grades refer to the transcript from which the peptide derives; gene names, where given, were looked up from the sequence.
# Legend:
# [1] = tested on: source genes (mRNA) in tumor and normal tissue samples; assay: Expression profiling (RNASeq) of genes encoding the peptides; set-up: species or system human
# [2] = tested on: HLA peptide pools from tumor and normal tissue samples; assay: Identification and relative LC-MS quantitation of HLA-presented tumor associated peptides (presentation profiles); set-up: species or system human
# [3] = RNASeq, tumors vs panel of normal tissues, value = tumor entities in this class
# [4] = cancer entities on which the peptide was found presented (Table 8A), value = entity abbreviations
Substance,"Peptide Presentation on cancer entities [2, 4]","Gene Expression in tumor samples: Highly over-expressed (++) [1, 3]",also measured
206: peptide found in ABCB5 (gene looked up) (MEFPNKFNTL; listed as Homo sapiens) [compound 206],MEL,,"Gene Expression in tumor samples: over-expressed (+) [1, 3]: MEL"
161: peptide found in FOLH1 (gene looked up) (DIVPPFSAF; listed as Homo sapiens) [compound 161],"CCC, MEL, OSCAR, UBC",PRCA,
79: peptide found in CDK6 (gene looked up) (GLARIYSF; listed as Homo sapiens) [compound 79],CCC,,"Gene Expression in tumor samples: over-expressed (+) [1, 3]: AML"
137: peptide found in ROS1 (gene looked up) (VQWKPPAL; listed as Homo sapiens) [compound 137],NSCLCadeno,"NSCLCadeno, NSCLCother","Gene Expression in tumor samples: over-expressed (+) [1, 3]: NSCLCsquam"
21: peptide found in PTPRZ1 (gene looked up) (RILKRFLAC; listed as Homo sapiens) [compound 21],"GBM, HNSCC, MEL",GBM,
11: peptide found in CCL17 (gene looked up) (MAPLKMLAL; listed as Homo sapiens) [compound 11],"CCC, HNSCC, NHL, NSCLCadeno, NSCLCother, NSCLCsquam, OSCAR, PACA, SCLC, UEC",NHL,
108: peptide found in MMP13 (gene looked up) (RSYYHPTNL; listed as Homo sapiens) [compound 108],"HNSCC, NSCLCsquam","HNSCC, NSCLCsquam, OSCAR","Gene Expression in tumor samples: over-expressed (+) [1, 3]: NSCLCadeno, UBC"
167: peptide found in HAVCR1 (gene looked up) (DMKITVSL; listed as Homo sapiens) [compound 167],CCC,,"Gene Expression in tumor samples: over-expressed (+) [1, 3]: RCC"
149: peptide found in PTPRZ1 (gene looked up) (TQKSVQVL; listed as Homo sapiens) [compound 149],GBM,GBM,
93: peptide found in MMP12 (gene looked up) (LMKEKIQEM; listed as Homo sapiens) [compound 93],NSCLCother,"CCC, GBC, GC, MEL, NHL, NSCLCadeno, OC, OSCAR, PACA, UBC, UEC","Gene Expression in tumor samples: over-expressed (+) [1, 3]: HCC, RCC; Gene Expression in tumor samples: very highly over-expressed (+++) [1, 3]: CRC. HNSCC, NSCLCother, NSCLCsquam, SCLC"
176: peptide found in ROS1 (gene looked up) (YVIQRQSVL; listed as Homo sapiens) [compound 176],NSCLCother,,"Gene Expression in tumor samples: over-expressed (+) [1, 3]: NSCLCadeno, NSCLCother, NSCLCsquam"
47: peptide found in PTPRZ1 (gene looked up) (HSRVKLAQL; listed as Homo sapiens) [compound 47],GBM,GBM,
54: peptide found in HAVCR1 (gene looked up) (DLSRRDVSL; listed as Homo sapiens) [compound 54],"CCC, PACA, RCC",,"Gene Expression in tumor samples: over-expressed (+) [1, 3]: RCC"
157: peptide found in MCOLN2 (gene looked up) (QPYRFPQA; listed as Homo sapiens) [compound 157],HNSCC,"CLL, NHL",
154: peptide found in APOB (gene looked up) (VLKTLQEL; listed as Homo sapiens) [compound 154],"CCC, HCC",HCC,
146: peptide found in PTPRZ1 (gene looked up) (FQTAHFYL; listed as Homo sapiens) [compound 146],MEL,GBM,
290: peptide found in KLK3 (gene looked up) (EEFLTPKKL; listed as Homo sapiens) [compound 290],,,"Gene Expression in tumor samples: very highly over-expressed (+++) ([1]; Table 9B, tumor entities versus panel of normal tissues): PRCA; Peptide Presentation on cancer entities ([2]; Table 8, cancer entities on which the peptide was presented): PRCA"
145: peptide found in ABCC4 (gene looked up) (MIYRKALRL; listed as Homo sapiens) [compound 145],NHL,PRCA,
55: peptide found in CXCR3 (gene looked up) (VLLSRRTAL; listed as Homo sapiens) [compound 55],"CLL, MEL, NSCLCadeno, UBC, UEC",,"Gene Expression in tumor samples: over-expressed (+) [1, 3]: CLL"
231: peptide found in SLC12A2 (gene looked up) (GEKLLRPSL; listed as Homo sapiens) [compound 231],HNSCC,,"Gene Expression in tumor samples: over-expressed (+) [1, 3]: CRC"
182: peptide found in HTR1F (gene looked up) (ILHLSAIAL; listed as Homo sapiens) [compound 182],BRCA,,"Gene Expression in tumor samples: over-expressed (+) [1, 3]: AML"
125: peptide found in PTPRZ1 (gene looked up) (FPLVTPLL; listed as Homo sapiens) [compound 125],GBM,GBM,

Substance,"Peptide Presentation on cancer entities [2, 4]","Gene Expression in tumor samples: Highly over-expressed (++) [1, 3]",also measured
28: peptide found in LOXL4 (gene looked up) (DPKSRLKSL; listed as Homo sapiens) [compound 28],MEL,MEL,
229: peptide found in SLC12A2 (gene looked up) (DTHTNTYYL; listed as Homo sapiens) [compound 229],HNSCC,,"Gene Expression in tumor samples: over-expressed (+) [1, 3]: CRC"
134: peptide found in APOB (gene looked up) (DQRSRATL; listed as Homo sapiens) [compound 134],HCC,HCC,
20: peptide found in PTPRZ1 (gene looked up) (ILKRFLAC; listed as Homo sapiens) [compound 20],GBM,GBM,
237 (LPLDSRYVTL; listed as Homo sapiens) [compound 237],NSCLCother,,
180: peptide found in SLC7A11 (gene looked up) (LAVPIFVAL; listed as Homo sapiens) [compound 180],,,"Gene Expression in tumor samples: over-expressed (+) [1, 3]: GBM, HNSCC, NSCLCadeno, NSCLCsquam, OSCAR"
7 (AARLRPAL; listed as Homo sapiens) [compound 7],CLL,,
110 (DAMTKHTL; listed as Homo sapiens) [compound 110],NHL,,
57 (MPLKHYLL; listed as Homo sapiens) [compound 57],HNSCC,,
244 (HALPPYITVL; listed as Homo sapiens) [compound 244],"MEL, NHL",,
4 (QVMPKTGL; listed as Homo sapiens) [compound 4],"HCC, MEL, OSCAR",,
24 (DLVLKRCL; listed as Homo sapiens) [compound 24],MEL,,
30 (DLQKKAQAL; listed as Homo sapiens) [compound 30],"BRCA, MEL, NSCLCsquam, OSCAR, PACA, PRCA",,
228 (TLRAYVLAL; listed as Homo sapiens) [compound 228],NSCLCother,,
35 (ELFQRPVL; listed as Homo sapiens) [compound 35],"CLL, NHL, NSCLCother, NSCLCsquam",,
67 (DMNTKRAIHTL; listed as Homo sapiens) [compound 67],CLL,,
236 (STLKKSLEI; listed as Homo sapiens) [compound 236],NSCLCsquam,,
95 (SRNPRGFFL; listed as Homo sapiens) [compound 95],"PACA, UEC",,
126 (TAAEARLSL; listed as Homo sapiens) [compound 126],"AML, SCLC",,
94 (DQLLRHVM; listed as Homo sapiens) [compound 94],"MEL, NSCLCsquam",,
196 (LDLRQKVL; listed as Homo sapiens) [compound 196],"BRCA, CCC, CLL, CRC, GBC, GBM, GC, HCC, HNSCC, MEL, NHL, NSCLCadeno, NSCLCother, NSCLCsquam, OSCAR, PACA, PRCA, RCC, SCLC, UBC, UEC",,
242 (KPQSLQLVL; listed as Homo sapiens) [compound 242],NSCLCother,,

# Reference: US11433099B2, “Immunotherapy with B*08 restricted peptides and combination of peptides against cancers and related methods” (Immatics Biotechnologies GmbH, priority 2018, dated 2022)
